Laboratory results reported in the supplement of paper PMC10849652.
This is one part of the list.

Sequences of proteins named here, by UniProt entry; tags and fusion partners are left off. A change or cut given only in a name is not applied to a line headed by its entry.
UniProt P07951, whole entry, looked up: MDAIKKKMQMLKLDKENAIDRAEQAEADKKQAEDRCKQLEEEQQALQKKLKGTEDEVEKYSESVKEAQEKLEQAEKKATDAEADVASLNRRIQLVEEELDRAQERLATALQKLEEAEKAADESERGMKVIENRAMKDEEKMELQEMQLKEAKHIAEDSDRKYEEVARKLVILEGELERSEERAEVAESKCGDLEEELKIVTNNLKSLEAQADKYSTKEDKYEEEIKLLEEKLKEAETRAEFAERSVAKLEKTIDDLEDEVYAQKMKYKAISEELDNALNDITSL
UniProt Q9UL33, whole entry, looked up: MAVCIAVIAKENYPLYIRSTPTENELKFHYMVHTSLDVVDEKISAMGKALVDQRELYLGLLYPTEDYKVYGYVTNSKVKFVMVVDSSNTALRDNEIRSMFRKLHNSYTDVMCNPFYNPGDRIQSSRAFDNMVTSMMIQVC
UniProt Q9P0U1: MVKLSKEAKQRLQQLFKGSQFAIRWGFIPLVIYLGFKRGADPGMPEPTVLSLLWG
UniProt O14657: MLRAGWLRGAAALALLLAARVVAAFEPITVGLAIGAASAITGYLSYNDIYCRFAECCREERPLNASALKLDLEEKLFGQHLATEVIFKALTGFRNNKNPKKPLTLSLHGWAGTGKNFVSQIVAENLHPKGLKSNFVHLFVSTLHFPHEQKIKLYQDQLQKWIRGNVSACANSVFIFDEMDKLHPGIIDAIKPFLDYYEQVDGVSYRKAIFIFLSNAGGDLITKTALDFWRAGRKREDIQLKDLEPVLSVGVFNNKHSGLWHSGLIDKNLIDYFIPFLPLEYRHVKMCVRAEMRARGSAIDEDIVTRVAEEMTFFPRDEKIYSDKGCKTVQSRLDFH
UniProt P12270, whole entry, looked up: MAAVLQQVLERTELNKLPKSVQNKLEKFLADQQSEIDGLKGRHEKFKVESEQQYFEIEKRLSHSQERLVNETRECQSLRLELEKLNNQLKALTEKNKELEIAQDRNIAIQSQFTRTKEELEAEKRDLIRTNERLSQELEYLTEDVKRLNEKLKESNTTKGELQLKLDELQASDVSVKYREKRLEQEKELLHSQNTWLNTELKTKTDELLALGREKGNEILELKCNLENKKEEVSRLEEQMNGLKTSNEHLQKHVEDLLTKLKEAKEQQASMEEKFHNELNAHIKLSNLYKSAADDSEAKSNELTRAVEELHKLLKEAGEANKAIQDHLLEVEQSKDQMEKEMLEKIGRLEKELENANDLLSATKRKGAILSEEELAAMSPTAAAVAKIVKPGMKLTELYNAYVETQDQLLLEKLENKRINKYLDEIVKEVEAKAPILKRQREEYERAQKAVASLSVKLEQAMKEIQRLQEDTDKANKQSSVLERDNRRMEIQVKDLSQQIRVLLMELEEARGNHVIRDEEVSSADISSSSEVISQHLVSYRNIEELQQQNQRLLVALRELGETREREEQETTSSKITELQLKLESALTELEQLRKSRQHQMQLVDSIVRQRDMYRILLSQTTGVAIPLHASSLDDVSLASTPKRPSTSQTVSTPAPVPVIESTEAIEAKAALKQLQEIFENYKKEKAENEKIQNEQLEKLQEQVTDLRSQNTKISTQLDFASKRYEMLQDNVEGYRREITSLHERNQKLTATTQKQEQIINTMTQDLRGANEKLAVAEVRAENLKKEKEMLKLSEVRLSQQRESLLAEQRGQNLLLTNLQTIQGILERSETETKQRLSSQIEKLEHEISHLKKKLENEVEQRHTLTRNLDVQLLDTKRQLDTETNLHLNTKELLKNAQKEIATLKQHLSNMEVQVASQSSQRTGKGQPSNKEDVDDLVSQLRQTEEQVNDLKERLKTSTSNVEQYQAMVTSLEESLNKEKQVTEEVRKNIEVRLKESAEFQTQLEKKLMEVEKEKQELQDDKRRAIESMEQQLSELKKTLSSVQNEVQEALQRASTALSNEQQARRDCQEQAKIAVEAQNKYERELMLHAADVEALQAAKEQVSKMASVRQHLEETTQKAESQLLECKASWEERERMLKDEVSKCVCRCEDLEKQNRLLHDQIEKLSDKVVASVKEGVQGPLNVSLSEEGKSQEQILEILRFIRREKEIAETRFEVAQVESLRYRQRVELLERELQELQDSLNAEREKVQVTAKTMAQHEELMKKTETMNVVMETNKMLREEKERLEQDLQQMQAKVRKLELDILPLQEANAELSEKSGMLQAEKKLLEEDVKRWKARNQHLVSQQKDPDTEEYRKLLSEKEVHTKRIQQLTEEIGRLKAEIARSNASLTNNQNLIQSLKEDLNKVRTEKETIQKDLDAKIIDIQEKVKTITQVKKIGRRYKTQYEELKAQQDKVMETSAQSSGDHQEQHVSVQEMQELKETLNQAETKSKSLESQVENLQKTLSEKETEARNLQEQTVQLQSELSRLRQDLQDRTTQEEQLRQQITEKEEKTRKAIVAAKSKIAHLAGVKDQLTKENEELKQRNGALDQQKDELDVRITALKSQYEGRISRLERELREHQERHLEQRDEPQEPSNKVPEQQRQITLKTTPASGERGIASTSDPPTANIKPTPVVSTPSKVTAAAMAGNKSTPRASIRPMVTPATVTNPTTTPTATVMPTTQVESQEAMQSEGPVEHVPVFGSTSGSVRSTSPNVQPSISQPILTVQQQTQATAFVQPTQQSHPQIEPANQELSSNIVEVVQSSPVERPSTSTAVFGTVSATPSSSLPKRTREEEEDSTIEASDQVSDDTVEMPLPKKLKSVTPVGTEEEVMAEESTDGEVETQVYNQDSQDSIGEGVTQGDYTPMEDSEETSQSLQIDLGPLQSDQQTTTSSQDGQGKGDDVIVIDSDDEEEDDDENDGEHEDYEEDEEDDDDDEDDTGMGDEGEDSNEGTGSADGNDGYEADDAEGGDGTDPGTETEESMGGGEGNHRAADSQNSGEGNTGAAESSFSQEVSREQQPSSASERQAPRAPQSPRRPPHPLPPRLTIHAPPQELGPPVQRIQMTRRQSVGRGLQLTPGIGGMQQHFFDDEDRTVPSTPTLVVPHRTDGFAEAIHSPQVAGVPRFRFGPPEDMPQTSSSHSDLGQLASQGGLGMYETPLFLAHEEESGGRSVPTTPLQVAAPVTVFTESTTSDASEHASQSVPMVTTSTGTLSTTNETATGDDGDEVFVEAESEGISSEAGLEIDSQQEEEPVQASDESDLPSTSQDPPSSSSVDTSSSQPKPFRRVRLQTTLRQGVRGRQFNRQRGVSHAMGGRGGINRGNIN
UniProt P60174, whole entry, looked up: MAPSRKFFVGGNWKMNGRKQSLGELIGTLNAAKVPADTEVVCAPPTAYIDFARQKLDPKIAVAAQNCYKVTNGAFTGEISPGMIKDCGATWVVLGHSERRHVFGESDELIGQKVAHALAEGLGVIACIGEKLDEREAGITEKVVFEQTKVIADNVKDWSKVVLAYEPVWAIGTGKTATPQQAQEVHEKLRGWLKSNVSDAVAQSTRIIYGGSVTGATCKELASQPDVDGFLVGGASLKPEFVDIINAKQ
UniProt P29144: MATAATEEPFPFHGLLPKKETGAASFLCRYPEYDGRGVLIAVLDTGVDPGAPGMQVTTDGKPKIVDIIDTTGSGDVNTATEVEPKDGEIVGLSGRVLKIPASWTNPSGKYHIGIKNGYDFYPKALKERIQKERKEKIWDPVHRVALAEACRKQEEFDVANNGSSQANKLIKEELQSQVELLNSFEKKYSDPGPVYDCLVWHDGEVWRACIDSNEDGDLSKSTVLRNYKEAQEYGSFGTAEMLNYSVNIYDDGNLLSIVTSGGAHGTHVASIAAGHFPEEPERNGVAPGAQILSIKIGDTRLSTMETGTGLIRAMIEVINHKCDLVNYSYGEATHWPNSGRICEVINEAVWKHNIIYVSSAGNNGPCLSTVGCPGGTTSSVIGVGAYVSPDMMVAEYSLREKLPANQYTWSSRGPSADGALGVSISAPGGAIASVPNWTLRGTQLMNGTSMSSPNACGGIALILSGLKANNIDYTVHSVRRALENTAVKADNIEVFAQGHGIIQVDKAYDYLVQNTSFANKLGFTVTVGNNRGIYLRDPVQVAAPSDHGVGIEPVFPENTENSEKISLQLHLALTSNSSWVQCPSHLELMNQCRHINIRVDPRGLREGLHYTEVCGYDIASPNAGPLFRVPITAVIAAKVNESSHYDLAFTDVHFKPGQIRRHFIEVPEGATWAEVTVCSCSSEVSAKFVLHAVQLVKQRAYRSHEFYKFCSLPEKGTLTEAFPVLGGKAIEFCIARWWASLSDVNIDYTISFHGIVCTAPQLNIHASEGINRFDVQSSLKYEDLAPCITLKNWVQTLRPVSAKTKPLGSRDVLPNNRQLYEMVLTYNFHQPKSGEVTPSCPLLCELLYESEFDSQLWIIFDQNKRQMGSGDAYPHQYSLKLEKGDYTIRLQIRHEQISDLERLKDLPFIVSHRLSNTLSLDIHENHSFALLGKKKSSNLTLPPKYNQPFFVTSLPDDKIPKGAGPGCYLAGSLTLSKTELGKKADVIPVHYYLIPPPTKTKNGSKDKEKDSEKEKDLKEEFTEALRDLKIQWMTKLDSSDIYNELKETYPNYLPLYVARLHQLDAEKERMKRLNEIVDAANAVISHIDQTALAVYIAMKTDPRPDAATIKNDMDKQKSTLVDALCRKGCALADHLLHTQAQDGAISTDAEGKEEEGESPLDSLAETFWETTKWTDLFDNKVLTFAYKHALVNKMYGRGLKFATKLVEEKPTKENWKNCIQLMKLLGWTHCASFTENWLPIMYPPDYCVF
UniProt O43715: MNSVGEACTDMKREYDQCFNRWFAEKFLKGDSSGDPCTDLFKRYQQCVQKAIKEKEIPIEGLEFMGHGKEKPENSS
UniProt P11387: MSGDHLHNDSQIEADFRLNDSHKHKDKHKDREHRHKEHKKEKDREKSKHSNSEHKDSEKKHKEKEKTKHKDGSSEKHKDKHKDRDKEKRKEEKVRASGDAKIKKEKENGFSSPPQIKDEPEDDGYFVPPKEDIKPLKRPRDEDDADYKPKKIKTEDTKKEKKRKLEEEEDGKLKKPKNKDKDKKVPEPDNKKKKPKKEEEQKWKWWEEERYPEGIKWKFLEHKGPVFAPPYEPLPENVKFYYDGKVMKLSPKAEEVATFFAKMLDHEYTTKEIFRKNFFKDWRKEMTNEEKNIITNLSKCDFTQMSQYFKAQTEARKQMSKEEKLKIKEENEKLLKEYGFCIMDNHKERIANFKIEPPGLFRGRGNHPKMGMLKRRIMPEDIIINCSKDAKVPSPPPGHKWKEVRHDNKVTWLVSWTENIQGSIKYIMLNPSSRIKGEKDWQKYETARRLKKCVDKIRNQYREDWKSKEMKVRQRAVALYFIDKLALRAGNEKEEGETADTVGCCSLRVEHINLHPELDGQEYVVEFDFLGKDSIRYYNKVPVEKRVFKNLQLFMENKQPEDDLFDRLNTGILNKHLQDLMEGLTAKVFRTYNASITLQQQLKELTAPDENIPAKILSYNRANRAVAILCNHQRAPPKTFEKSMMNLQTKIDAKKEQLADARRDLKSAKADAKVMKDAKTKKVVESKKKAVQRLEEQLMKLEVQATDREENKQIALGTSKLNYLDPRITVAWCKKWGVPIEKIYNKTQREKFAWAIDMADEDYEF
UniProt Q9Y4K3: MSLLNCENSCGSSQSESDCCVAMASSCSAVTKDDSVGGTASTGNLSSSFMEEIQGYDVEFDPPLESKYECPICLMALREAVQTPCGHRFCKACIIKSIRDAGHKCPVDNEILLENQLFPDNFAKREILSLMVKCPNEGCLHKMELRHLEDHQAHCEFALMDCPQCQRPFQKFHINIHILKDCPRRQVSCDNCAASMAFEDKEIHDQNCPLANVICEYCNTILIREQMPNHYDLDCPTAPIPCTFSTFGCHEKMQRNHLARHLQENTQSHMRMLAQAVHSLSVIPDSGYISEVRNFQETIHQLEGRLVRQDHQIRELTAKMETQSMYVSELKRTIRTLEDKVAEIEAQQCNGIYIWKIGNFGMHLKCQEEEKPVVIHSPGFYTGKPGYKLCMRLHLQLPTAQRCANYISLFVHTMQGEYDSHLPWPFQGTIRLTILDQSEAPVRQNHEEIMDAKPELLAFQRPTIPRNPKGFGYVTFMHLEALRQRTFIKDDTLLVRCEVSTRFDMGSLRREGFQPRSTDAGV
UniProt P20333, whole entry, looked up: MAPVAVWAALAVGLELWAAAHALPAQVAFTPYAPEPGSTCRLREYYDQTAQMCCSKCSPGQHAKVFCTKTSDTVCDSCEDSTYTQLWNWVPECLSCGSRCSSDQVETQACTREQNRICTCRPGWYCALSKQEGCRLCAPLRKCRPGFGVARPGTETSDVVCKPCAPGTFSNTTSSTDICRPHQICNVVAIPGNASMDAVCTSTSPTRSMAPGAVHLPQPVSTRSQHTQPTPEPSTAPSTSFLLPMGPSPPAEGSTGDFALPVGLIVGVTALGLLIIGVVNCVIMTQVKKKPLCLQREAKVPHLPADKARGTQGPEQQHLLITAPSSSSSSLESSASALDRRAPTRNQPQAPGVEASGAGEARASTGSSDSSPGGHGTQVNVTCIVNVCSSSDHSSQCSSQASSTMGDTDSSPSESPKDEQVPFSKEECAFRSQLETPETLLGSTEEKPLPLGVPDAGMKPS

Key:
Test in all cases: log2 fold change, soluble protein after heating vs DMSO (PISA); higher = thermal stabilisation; K562 cells, 10 uM, 30 min; active = over 0.2 and 3.5 SD of the protein, either way, in both replicates (recomputed)
[1] = compound: CC1=C(C=C(C=C1)NC(=O)C2=CC(=CC=C2)C(C)(C)C#N)NC3=CC4=C(C=C3)N=CN(C4=O)C
Outline: (§1)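 For each measurement, 10 μM compound was applied for 30 min to K562 cells at 2×10^6 cells/mL. Aliquots were heated for 3 min across 48°C-58°C, pooled, and extracted in PBS with 0.5% NP-40 at 4°C; the supernatant after 21,000xg for 90 min was soluble protein. This was quantified by TMTpro 16plex LC-MS/MS with channel sums equalised, and thermal stability was reported relative to control samples from duplicates, on a log2 fold-change scale.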

[2] = compound: CC1=C(C=C(C=C1)NC(=O)C2=CC(=CC=C2)N(C)C)NC(=O)C3=CC=C(C=C3)O
Outline: as §1

[3] = compound: CC1=CC=C(C=C1)SC2=C3C=C(SC3=CN=C2)C(=O)N
Outline: as §1

[4] = compound: CC1=NC(=CC=C1)C2=C(N=C(N2)C(C)(C)C)C3=CC4=NC=CN=C4C=C3
Outline: as §1

[5] = compound: CCCCN(Cc1ccc(C(=O)NO)cc1)C(=O)Nc1ccccc1 [Nexturastat A]
Outline: as §1

[6] = compound: CCCS(=O)(=O)Nc1ccc(F)c(C(=O)c2c[nH]c3ncc(-c4ccc(Cl)cc4)cc23)c1F [vemurafenib]
Outline: as §1

[7] = compound: CCCS(=O)(=O)Nc1ccc(F)c(C(=O)c2c[nH]c3ncc(Cl)cc23)c1F
Outline: as §1

[8] = compound: CCCc1cc(C)[nH]c(=O)c1CNC(=O)c1cc(-c2ccnc(N3CCN(C)CC3)c2)cc2c1cnn2C(C)C
Outline: as §1

[9] = compound: CCN(CC)Cc1ccc2cc(COC(=O)Nc3ccc(C(=O)NO)cc3)ccc2c1 [givinostat]
Outline: as §1

[10] = compound: CCN(CCCOc1ccc2c(Nc3cc(CC(=O)Nc4cccc(F)c4)[nH]n3)ncnc2c1)CCOP(=O)(O)O [barasertib]
Outline: as §1

Measured: log2 fold change

TPM2 (UniProt P07951)
inactive: [1] 0.048 | [2] -0.019 | [3] -0.047 | [4] 0.212 | [5] -0.138 | [6] 0.03 | [7] 0.001 | [8] 0.405 | [9] -0.011 | [10] 0.04

TPM1 (UniProt H7BYY1)
inactive: [1] -0.038 | [2] 0.021 | [3] -0.035 | [4] -0.023 | [5] 0.002 | [6] -0.074 | [7] -0.024 | [8] -0.035 | [9] -0.037 | [10] 0.029

TOP2A isoform 4 (UniProt P11388)
inactive: [1] 0.081 | [2] -0.006 | [3] -0.083 | [4] -0.094 | [5] 0.234 | [6] -0.213 | [7] 0.042 | [8] 0.182 | [9] 0.207 | [10] -0.054

TNFRSF8 (UniProt P28908)
inactive: [1] -0.047 | [2] 0.01 | [3] -0.076 | [4] -0.005 | [5] 0.008 | [6] -0.028 | [7] -0.015 | [8] 0.031 | [9] -0.007 | [10] -0.006

TRAPPC2L (UniProt Q9UL33)
inactive: [1] 0 | [2] -0.135 | [3] 0.133 | [4] 0.045 | [5] 0.003 | [6] 0.076 | [7] 0.11 | [8] 0.055 | [9] -0.123 | [10] 0.05

TOMM7 (UniProt Q9P0U1)
inactive: [1] 0.028 | [2] -0.053 | [3] -0.007 | [4] 0.02 | [5] 0.052 | [6] 0.221 | [7] -0.065 | [8] -0.019 | [9] 0.017 | [10] -0.039

TRIP10 (UniProt Q15642)
inactive: [1] 0.003 | [2] -0.026 | [3] -0.009 | [4] -0.045 | [5] 0.139 | [6] 0.08 | [7] 0.026 | [8] -0.012 | [9] -0.058 | [10] 0.015

TRAF4 (UniProt Q9BUZ4)
inactive: [1] 0.023 | [2] -0.025 | [3] 0 | [4] 0.002 | [5] 0.151 | [6] -0.064 | [7] 0.064 | [8] 0.038 | [9] 0.017 | [10] 0.03

TOR3A (UniProt Q9H497)
inactive: [1] -0.027 | [2] 0.012 | [3] 0.007 | [4] -0.033 | [5] 0.006 | [6] -0.043 | [7] -0.001 | [8] -0.007 | [9] 0.023 | [10] 0.021

TOR1B (UniProt O14657)
inactive: [1] -0.053 | [2] -0.015 | [3] -0.001 | [4] -0.028 | [5] -0.006 | [6] -0.03 | [7] -0.035 | [8] -0.066 | [9] 0.025 | [10] -0.013

TPX2 (UniProt Q9ULW0)
inactive: [1] 0.009 | [2] 0.026 | [3] -0.039 | [4] 0.009 | [5] -0.035 | [6] -0.036 | [7] -0.019 | [8] -0.055 | [9] -0.165 | [10] -0.115

TPR (UniProt P12270)
inactive: [1] -0.001 | [2] 0.023 | [3] -0.069 | [4] -0.047 | [5] -0.048 | [6] 0.031 | [7] 0.012 | [8] 0.003 | [9] -0.08 | [10] 0

TPI1 (UniProt P60174)
inactive: [1] -0.004 | [2] 0 | [3] 0.009 | [4] 0.011 | [5] -0.02 | [6] -0.018 | [7] -0.034 | [8] -0.049 | [9] 0.006 | [10] -0.004

TRAM1 (UniProt Q15629)
inactive: [1] 0.024 | [2] -0.063 | [3] -0.006 | [4] 0.048 | [5] 0.005 | [6] 0.027 | [7] 0.02 | [8] -0.101 | [9] 0.028 | [10] 0.015

TPP2 (UniProt P29144)
inactive: [1] 0.024 | [2] -0.06 | [3] 0.026 | [4] -0.225 | [5] 0.244 | [6] -0.088 | [7] -0.034 | [8] 0.099 | [9] 0.153 | [10] -0.023

TRIAP1 (UniProt O43715)
inactive: [1] -0.012 | [2] -0.135 | [3] 0.444 | [4] 0.117 | [5] -0.018 | [6] 0.065 | [7] -0.362 | [8] 0.003 | [9] 0.019 | [10] 0.037

TOX4 (UniProt O94842)
inactive: [1] -0.032 | [2] -0.031 | [3] -0.085 | [4] -0.101 | [5] 0.249 | [6] 0 | [7] -0.109 | [8] 0.04 | [9] -0.099 | [10] -0.014

Copied from the entries so far (2 entries):
TRIAP1 (UniProt O43715)
inactive: [1] -0.012 | [2] -0.135 | [3] 0.444 | [4] 0.117 | [5] -0.018 | [6] 0.065 | [7] -0.362 | [8] 0.003 | [9] 0.019 | [10] 0.037

TOX4 (UniProt O94842)
inactive: [1] -0.032 | [2] -0.031 | [3] -0.085 | [4] -0.101 | [5] 0.249 | [6] 0 | [7] -0.109 | [8] 0.04 | [9] -0.099 | [10] -0.014

The listing continues.

TPRKB (UniProt Q9Y3C4)
inactive: [1] 0.03 | [2] 0.002 | [3] 0.02 | [4] 0.016 | [5] -0.003 | [6] -0.036 | [7] -0.019 | [8] -0.025 | [9] -0.062 | [10] 0.025

TP53RK (UniProt Q96S44)
inactive: [1] 0.015 | [2] 0.008 | [3] 0.01 | [4] 0.038 | [5] -0.069 | [6] 0.011 | [7] 0.009 | [8] -0.013 | [9] -0.007 | [10] -0.014

TNPO2 (UniProt O14787)
inactive: [1] 0.052 | [2] -0.01 | [3] 0.073 | [4] 0.015 | [5] 0.021 | [6] 0.061 | [7] 0.11 | [8] 0.007 | [9] 0.083 | [10] 0.054

TOP1 (UniProt P11387)
inactive: [1] 0.031 | [2] -0.083 | [3] -0.033 | [4] 0.061 | [5] 0.158 | [6] -0.202 | [7] 0.092 | [8] 0.214 | [9] 0.225 | [10] -0.057

TRAF6 (UniProt Q9Y4K3)
inactive: [1] -0.048 | [2] -0.071 | [3] 0.073 | [4] -0.083 | [5] 0.127 | [6] 0.017 | [7] 0.003 | [8] -0.005 | [9] 0.013 | [10] -0.002

TRPC4AP (UniProt Q8TEL6)
inactive: [1] 0.115 | [2] -0.115 | [3] -0.013 | [4] -0.047 | [5] 0.22 | [6] -0.004 | [7] 0 | [8] 0.043 | [9] 0.12

TOR1AIP1 isoform 3 (UniProt Q5JTV8)
inactive: [1] -0.012 | [2] -0.011 | [3] 0.016 | [4] 0.009 | [5] -0.006 | [6] 0.011 | [7] -0.03 | [8] -0.003 | [9] -0.03 | [10] -0.036

TRMT6 (UniProt Q9UJA5)
inactive: [1] -0.079 | [2] 0.036 | [3] 0 | [4] -0.06 | [5] 0.172 | [6] -0.064 | [7] -0.051 | [8] 0.089 | [9] -0.007 | [10] -0.045

TOP3B (UniProt O95985)
inactive: [1] -0.009 | [2] -0.031 | [3] -0.015 | [4] -0.054 | [5] 0.272 | [6] -0.033 | [7] -0.051 | [8] 0.088 | [9] -0.014 | [10] -0.009

TSC22D1 (UniProt Q15714)
inactive: [1] 0.003 | [2] -0.002 | [3] 0.055 | [4] 0.025 | [5] -0.075 | [6] -0.054 | [7] 0.136 | [8] -0.011 | [9] 0.009 | [10] 0.026

TNFRSF1B (UniProt P20333)
inactive: [1] -0.092 | [2] 0.045 | [3] -0.038 | [4] 0.015 | [5] 0.037 | [6] -0.042 | [7] 0.073 | [8] -0.048 | [9] -0.071 | [10] -0.05

TRMT112 (UniProt Q9UI30)
inactive: [1] 0.014 | [2] -0.063 | [3] 0.101 | [4] -0.025 | [5] -0.023 | [6] 0.052 | [7] 0.072 | [8] 0.014 | [9] -0.154 | [10] 0.058

TRIM24 (UniProt O15164)
inactive: [1] 0.011 | [2] -0.039 | [3] 0.003 | [4] -0.074 | [5] -0.241 | [6] -0.009 | [7] -0.11 | [8] 0.067 | [9] 0.019 | [10] 0.061
